Drawing on PubChem BioAssay AID493014 (National Center for Advancing Translational Sciences (NCATS), 2011), this text covers AC50 for 63 compounds.

One may read the AC50 as the midpoint of the concentration-response curve, whichever way the signal moves.

“And” between values parts separate entries of the source, which are not always exact repeats. Equal values may be shown once. The list shows a part of the results. The main result of the screen is listed elsewhere. These columns were measured beside it and carry no call. The list favours compounds with an active or inconclusive main result. Words in brackets tell the shape of the fitted curve; partial curves, single points and poor fits give uncertain potencies.

This test can be described thus: qHTS Assay to Find Inhibitors of Chronic Active B-Cell Receptor Signaling. Particulars: ABC-DLBCL IkBa-CBG/CBR reporter, luminescence ratio (green luciferase fused to IkBa over red control in TMD8 lymphoma cells), 4 h. The method, boiled down: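 Doxycycline induced both beetle luciferases in TMD8 lymphoma cells; IKK-driven degradation limits the IkappaBalpha-fused green signal, while red luminescence normalises for cell number and nonspecific effects. Compounds tested up to 46 uM, 4 hrs.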
For orientation: Quantitative high-throughput screening tests each substance at several concentrations.

[1] abbreviates: measured here: CBR red luminescence, cell number.
The mark [2] stands for this setting: measured here: IkBa-CBG green luminescence.

As for `CCCCNCC#CCOc1cc(C)ccc1C(C)C`, under setting [1], the AC50 is 12.6 µM [falling, partial curve].

For the compound `O=C(NNC(=S)Nc1ccccc1C(F)(F)F)c1ccc(Br)o1`, the AC50 under setting [1] is 14.1 µM [falling, single point].

With `Nc1ccccc1SCC(=O)Nc1cccc2ccccc12`, the AC50 under setting [1] is 3.55 µM [falling, full curve, poor fit].

Consider `O=C(CC(=O)c1ccccc1)Nc1ccccc1C(F)(F)F`, for which the AC50 under setting [1] is 12.6 µM [rising, single point].

On to `O=C(CSc1ccc2nnc(CCNS(=O)(=O)c3ccccc3)n2n1)Nc1nc2ccccc2s1`, for which, under setting [1], the AC50 is 29.1 µM [falling, single point].

As to `Cc1cccc2cc(C#N)c(N3CCC(O)CC3)nc12`, the AC50 under setting [1] was 8.91 µM [rising, partial curve, poor fit].

Take `COc1ccc(CNS(=O)(=O)c2ccc(OC)cc2)cc1`: under setting [1], the AC50 was 23.1 µM [rising, partial curve, poor fit].

Turning to `Cc1ccc(NC(=O)COC(=O)C2(c3ccc(Cl)cc3)CCCC2)cc1`, the half-maximal activity concentration (AC50) under setting [1] is 16.4 µM [falling, partial curve].

`CC1=CCC2C(=O)N(c3nc(C)cc(C)n3)C(=O)C2C1` (stereo not given): the AC50 under setting [1] was 6.51 µM [rising, single point].

Turning to `Cc1ccc(OCCC(=O)OCC(=O)Nc2cc(S(=O)(=O)N(C)C)ccc2C)cc1`, under setting [1], the AC50 is 25.1 µM [falling, single point].

Regarding `C[C@@]12C(=O)Nc3ccc(F)cc3C(=O)N1[C@H]1c3cc(Br)ccc3OC[C@@H]1[C@@H]2c1ccccc1`, under setting [1], the AC50 was 0.92 µM [falling, full curve, poor fit].

Consider `COc1ccc(OC)c(N2C(=O)CC(Cc3ccc(C)cc3)C2=O)c1` (stereo not given), for which the AC50 under setting [1] was 20.6 µM [rising, single point].

For `CC(=O)Nc1sc(NC(=O)c2ccc([N+](=O)[O-])cc2)nc1-c1cccs1`, the AC50 under setting [1] is 3.16 µM [rising, full curve, poor fit].

Turning to `Cc1cc([N+](=O)[O-])nn1CCCC(=O)Nc1cc(Oc2ccccc2)cc([N+](=O)[O-])c1`, the AC50 under setting [1] is 23.1 µM [rising, single point].

Turning to `CCOC(=O)c1cc(-c2ccc(OC(F)F)cc2)nc2c1c(=O)[nH]c(=O)n2C`, the AC50 under setting [1] was 2.31 µM [rising, partial curve, poor fit].

`COc1ccc2oc(-c3ccc(C)c(NC(=O)c4ccc(N5CCOCC5)c([N+](=O)[O-])c4)c3)nc2c1`: the AC50 under setting [1] is 3.55 µM [rising, partial curve].

As for `CCOC(=O)C1=C(C)NC(=S)N(C(C)=O)C1c1ccc(OC)c(OC)c1` (stereo not given), the AC50 under setting [1] was 0.891 µM [rising, full curve, poor fit].

Turning to `CCOC(=O)C1=NOC(COc2ccccc2C=O)C1` (stereo not given), the AC50 under setting [1] was 35.5 µM [falling, partial curve, poor fit].

Take `COc1ccccc1CCC(=O)Nc1ccc(C)cc1Cl`: the AC50 under setting [1] was 31.6 µM [falling, partial curve, poor fit].

For the compound `COc1ccc(Nc2nc(N)nc(CN3CCc4ccccc4C3)n2)cc1`, the AC50 is 35.5 µM [rising, single point] under setting [1] and 35.5 µM [falling, single point] under setting [2].

As for `COc1cccc(-c2ccc3ncnc(NCc4cccc(C)c4)c3c2)c1`, the AC50 under setting [1] was 18.4 µM [falling, single point] and 29.1 µM [falling, single point].

On to `CCc1noc(C)c1C(=O)Nc1nc(-c2ccc(Cl)cc2Cl)c(C)s1`, for which, under setting [1], the AC50 was 29.1 µM [rising, single point].

Regarding `Cc1nc(=S)c2ccccc2[nH]1`, the AC50 under setting [1] is 0.00461 µM [falling, full curve, poor fit].

For the compound `O=C(COC(=O)c1cccnc1)Nc1ccc(F)cc1`, the AC50 under setting [1] is 0.58 µM [falling, partial curve, poor fit].

With `COc1ccc2c(c1)OC[C@H]1[C@H]2N2C(=O)c3cc(C)ccc3NC(=O)[C@@]2(C)[C@H]1c1ccccc1`, the AC50 under setting [1] is 29.1 µM [falling, single point].

Take `Cc1ccc(-n2c(SCC(N)=O)nc3c(c2=O)C2(CCCC2)Cc2ccccc2-3)cc1`: the AC50 under setting [1] is 18.4 µM [falling, single point].

For the compound `CCOc1ccc(S(=O)(=O)N2CCC(C(=O)NCc3ccccn3)CC2)cc1Cl`, the AC50 under setting [1] is 35.5 µM [falling, single point].

As to `CCn1c(SCC(=O)NCc2ccc3c(c2)OCO3)nnc1-c1cccs1`, the AC50 under setting [1] is 2.59 µM [rising, full curve, poor fit].

As for `C=C(C)c1cccc(C(C)(C)NC(=O)NC(c2ccccc2)c2ccc(OC)cc2)c1` (stereo not given), under setting [1], the AC50 is 16.4 µM [falling, partial curve].

For the compound `Cc1nnc(SCCC(=O)Nc2ccc(Cl)cc2)o1`, the AC50 under setting [1] was 0.891 µM [rising, full curve, poor fit].

For the compound `CCOC(=O)c1c(-c2ccc(-c3ccccc3)cc2)csc1NC(=O)CCN1CCOCC1`, the AC50 under setting [1] was 7.31 µM [rising, partial curve].

In the case of `Cc1cc2c(cc1C)NC(=O)CC(C(F)(F)C(F)(F)C(F)(F)F)=N2`, the AC50 under setting [1] is 3.26 µM [rising, partial curve, poor fit].

As to `Cc1cccc(Nc2nnc(SCC(=O)Nc3cccc(S(=O)(=O)N4CCCCC4)c3)s2)c1`, the AC50 under setting [1] is 20.6 µM [falling, single point].

With `CN(C)/C=C/C(=O)c1ccc(Cl)cc1Cl`, under setting [1], the AC50 is 22.4 µM [rising, single point].

For the compound `O=C(NCC1CCCO1)c1ccc2[nH]c3c(c2c1)CCCC3` (stereo not given), under setting [1], the AC50 is 0.00461 µM [rising, full curve, poor fit].

Regarding `COC(=O)c1ccc(C(=O)NN)cc1`, under setting [1], the AC50 was 2.82 µM [falling, full curve].

Turning to `CCN1CCN(CCn2c(=S)[nH]c3cc4c(cc3c2=O)OCO4)CC1`, under setting [1], the AC50 is 0.517 µM [rising, partial curve, poor fit].

As for `O=C1CN(C(=O)c2ccc(Br)o2)C(c2ccc(F)cc2)c2cc(Cl)ccc2N1` (stereo not given), the AC50 under setting [1] was 31.6 µM [falling, single point].

As for `N#CC(C(=O)C1CCCCC1)c1nc2ccccc2[nH]1` (stereo not given), the AC50 under setting [1] was 13 µM [falling, partial curve, poor fit].

Take `COc1ccc2cc(CO)c3cc(OC)c(OC)cc3c2c1`: the AC50 under setting [1] is 20.6 µM [falling, single point].

Regarding `CCS(=O)(=O)N1CCN(c2cnn(-c3ccccc3)c(=O)c2Cl)CC1`, the AC50 under setting [1] is 31.6 µM [rising, single point].

For `COc1ccc(C(=O)N/N=C(\C)c2ccccn2)cc1OC`, the AC50 runs as follows: under setting [1], 35.5 µM [rising, single point]; under setting [2], 35.5 µM [falling, single point].

`Cc1cccc(CSc2ccc3nnc(-c4ccccn4)n3n2)c1`: the AC50 under setting [1] is 1.41 µM [falling, full curve, poor fit].

Turning to `Cc1ccccc1NCC(=O)N/N=C/C(Br)=C/c1ccccc1`, the AC50 under setting [1] is 1.3 µM [rising, full curve, poor fit].

Regarding `COc1cccc(N/C(SC)=C(/C#N)C(=O)NCc2cccs2)c1`, the AC50 under setting [1] is 1.58 µM [rising, partial curve].

As for `O=C(Nc1ccc2c(c1)nc1n2CCN(Cc2ccccc2)C1)c1cccs1`, under setting [1], the AC50 is 32.6 µM [falling, single point].

Turning to `COc1ccccc1C(CNC(=O)c1cccc(S(=O)(=O)Nc2ccc(C)cc2)c1)N1CCCC1` (stereo not given), the AC50 under setting [1] is 23.1 µM [falling, single point].

As for `O=C(Cc1ccc(Cl)cc1Cl)OCC(=O)c1ccc[nH]1`, the AC50 under setting [1] is 6.51 µM [rising, single point].

On to `COc1ccc2nc(-c3ccccn3)[nH]c2c1`, for which the AC50 under setting [1] was 35.5 µM [falling, single point].

Take `COc1ccc(-c2nc3nc(C)c(Cc4ccccc4)c(=O)n3[nH]2)cc1`: the AC50 under setting [1] is 1.3 µM [falling, full curve].

Turning to `CCOc1nc2ccccc2cc1/C=C/C(=O)O`, under setting [1], the half-maximal activity concentration (AC50) was 35.5 µM [rising, single point].

For the compound `CCN1CCN(C(=O)c2cn(CCOC)c(=O)c3c2c2ccccc2n3C)CC1`, under setting [1], the AC50 was 11.6 µM [rising, partial curve].

In the case of `Cc1cc(-c2ccccc2)nn1-c1nc2c(c(=O)[nH]c(=O)n2C)n1C`, the AC50 under setting [1] is 13 µM [rising, partial curve, poor fit].

As for `COCCn1c(=O)[nH]c2cc(C(=O)Nc3cccc(C(C)=O)c3)ccc2c1=O`, the AC50 under setting [1] was 0.316 µM [falling, partial curve, poor fit].

Turning to `COc1ccc(Cl)cc1NC(=O)CN1C(=O)CCS(=O)(=O)c2ccccc21`, the AC50 under setting [1] was 0.103 µM [rising, full curve, poor fit].

On to `COc1ccc(C(=O)NCCc2c[nH]c3ccccc23)cc1OC`, for which the AC50 under setting [1] was 20 µM [falling, partial curve, poor fit].

Consider `COc1ccc2[nH]c(=O)c(CN(C(=O)COc3ccccc3)C(C)C)cc2c1`, for which the AC50 under setting [1] was 1.41 µM [rising, partial curve, poor fit].

Regarding `Cc1cc(C)c2oc(C(=O)Nc3ccc(S(=O)(=O)Nc4nccc(C)n4)cc3)cc(=O)c2c1`, the AC50 under setting [1] was 0.562 µM [rising, full curve, poor fit].

For `O=C(Nc1nc2ccccc2s1)c1ccc([N+](=O)[O-])o1`, the AC50 under setting [1] was 1.26 µM [falling, full curve].

Regarding `CC(C(=O)O/N=C(\N)c1ccccn1)c1ccc([N+](=O)[O-])cc1` (stereo not given), the AC50 under setting [1] was 7.94 µM [falling, partial curve, poor fit].

With `COc1ccc(-c2oc3cccnc3c2C#CCO)cc1`, under setting [1], the AC50 is 3.98 µM [rising, partial curve, poor fit].

With `COc1ccccc1-c1cc(C(=O)NC(C)c2ccccc2)no1` (stereo not given), the concentration at half-maximal activity (AC50) under setting [1] was 15.8 µM [falling, partial curve, poor fit].

With `O=C(CSCc1ccc(F)cc1)Nc1nc2c(s1)CCCC2`, the AC50 under setting [1] was 7.08 µM [rising, partial curve, poor fit].
